These are yes or no findings as the source states them, for the method shown. In cells and extracts the contact can be indirect. A result given as binding can be weak or reduced; the word gives no strength.

Sequences of proteins named here, by UniProt entry; tags and fusion partners are left off. A change or cut given only in a name is not applied to a line headed by its entry.
UniProt O43734: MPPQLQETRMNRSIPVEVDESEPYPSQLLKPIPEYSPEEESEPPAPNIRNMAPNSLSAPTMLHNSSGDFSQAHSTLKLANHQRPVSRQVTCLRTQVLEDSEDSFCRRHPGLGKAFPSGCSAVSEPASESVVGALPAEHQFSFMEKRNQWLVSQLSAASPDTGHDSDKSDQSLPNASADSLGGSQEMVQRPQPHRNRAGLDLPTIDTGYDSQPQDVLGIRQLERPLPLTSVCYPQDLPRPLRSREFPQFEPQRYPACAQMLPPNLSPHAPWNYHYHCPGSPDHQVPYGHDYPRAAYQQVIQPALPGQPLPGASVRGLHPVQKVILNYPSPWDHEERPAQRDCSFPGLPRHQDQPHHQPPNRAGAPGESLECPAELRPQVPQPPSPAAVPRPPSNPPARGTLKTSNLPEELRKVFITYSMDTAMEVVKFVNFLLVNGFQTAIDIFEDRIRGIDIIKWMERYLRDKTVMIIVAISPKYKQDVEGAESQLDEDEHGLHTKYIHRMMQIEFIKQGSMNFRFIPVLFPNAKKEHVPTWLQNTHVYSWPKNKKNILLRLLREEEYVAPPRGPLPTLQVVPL
UniProt P26358: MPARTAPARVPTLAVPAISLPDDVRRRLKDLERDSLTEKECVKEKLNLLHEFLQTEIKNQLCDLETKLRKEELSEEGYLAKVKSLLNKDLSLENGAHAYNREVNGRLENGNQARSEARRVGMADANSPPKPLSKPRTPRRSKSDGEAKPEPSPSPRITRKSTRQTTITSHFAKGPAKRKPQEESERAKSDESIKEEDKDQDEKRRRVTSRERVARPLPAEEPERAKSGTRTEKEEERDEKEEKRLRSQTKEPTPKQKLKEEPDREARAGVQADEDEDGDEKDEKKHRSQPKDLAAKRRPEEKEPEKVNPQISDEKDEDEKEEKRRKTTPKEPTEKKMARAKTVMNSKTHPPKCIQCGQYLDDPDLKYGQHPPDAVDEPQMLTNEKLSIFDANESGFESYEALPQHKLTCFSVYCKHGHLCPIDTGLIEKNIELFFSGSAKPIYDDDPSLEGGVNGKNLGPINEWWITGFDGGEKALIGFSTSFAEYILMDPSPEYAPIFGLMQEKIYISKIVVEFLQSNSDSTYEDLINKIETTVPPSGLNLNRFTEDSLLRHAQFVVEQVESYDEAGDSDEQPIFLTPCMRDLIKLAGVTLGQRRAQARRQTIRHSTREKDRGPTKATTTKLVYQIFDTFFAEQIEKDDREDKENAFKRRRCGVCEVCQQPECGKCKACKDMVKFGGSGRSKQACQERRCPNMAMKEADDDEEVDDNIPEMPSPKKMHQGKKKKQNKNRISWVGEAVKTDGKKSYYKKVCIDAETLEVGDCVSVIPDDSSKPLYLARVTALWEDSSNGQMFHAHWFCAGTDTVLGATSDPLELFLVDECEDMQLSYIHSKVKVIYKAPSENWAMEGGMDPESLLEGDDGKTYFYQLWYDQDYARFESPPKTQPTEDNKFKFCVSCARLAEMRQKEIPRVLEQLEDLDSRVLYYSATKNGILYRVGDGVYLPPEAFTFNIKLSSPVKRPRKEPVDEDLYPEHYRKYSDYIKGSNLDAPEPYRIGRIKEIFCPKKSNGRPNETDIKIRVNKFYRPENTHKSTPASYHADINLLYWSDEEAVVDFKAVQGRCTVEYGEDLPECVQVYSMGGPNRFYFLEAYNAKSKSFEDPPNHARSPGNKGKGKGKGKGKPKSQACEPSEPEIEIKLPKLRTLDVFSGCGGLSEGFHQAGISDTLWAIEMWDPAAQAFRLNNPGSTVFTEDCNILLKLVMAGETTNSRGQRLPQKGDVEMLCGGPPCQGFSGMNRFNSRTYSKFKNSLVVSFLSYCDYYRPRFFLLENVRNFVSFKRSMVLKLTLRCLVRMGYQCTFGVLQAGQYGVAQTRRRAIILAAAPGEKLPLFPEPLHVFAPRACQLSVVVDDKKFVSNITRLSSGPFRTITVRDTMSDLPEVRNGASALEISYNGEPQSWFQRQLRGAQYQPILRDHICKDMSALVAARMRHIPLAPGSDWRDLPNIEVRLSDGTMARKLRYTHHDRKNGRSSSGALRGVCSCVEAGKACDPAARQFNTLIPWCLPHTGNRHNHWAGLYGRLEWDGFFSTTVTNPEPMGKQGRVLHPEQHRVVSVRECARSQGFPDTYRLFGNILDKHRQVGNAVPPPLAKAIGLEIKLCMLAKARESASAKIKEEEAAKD

In one experiment the target is Flag-TRAF3IP2 (UniProt O43734). Nature of the experiment: co-IP; UOK109 cells transfected with Flag-TRAF3IP2, HA-NICD1 and V5-NECD1; IP with anti-Flag antibody; western blot. (Immunoblotting shows a protein as a band on a membrane.)
Experiment [1] concerns the target TS domain of DNMT1 (truncated DNMT1) (UniProt P26358). Nature of the experiment: co-IP; HEK 293T cells transfected with DNMT1 truncations; western blot.

Take “HA-NICD1 (intracellular domain of NOTCH1) (from UniProt P46531) (domain or fragment)”: the binding result with Flag-TRAF3IP2 was “binds”. As for “HNRNPK (partner of the DNMT1 and SETDB1 truncations in HEK293T) (from UniProt P61978 1-463)”, the binding result in experiment [1] is “binds”.

(Values after article PMC9331078.)
